The test system of the data set is BAF complex subunits and histone proteins. As to the kind of experiment: Mass spectrometry proteomics of purified HA-SS18 WT and HA-SS18-SSX1 complexes (Tables 5A-5E). The conditions noted are these: for Total / Unique: HA-SS18SSX1_CHR_peptides; for Total: total peptides of the identified protein; for Unique: unique peptides of the identified protein. Set-up: species or system human.

The mark [1] stands for this setting: HA-SS18WT_CHR_peptides: protein identified in HA-SS18 WT BAF complex purification from nuclease-treated solubilized chromatin (CHR), HEK-293T.
Setting [2] is: HA-SS18SSX1 purification, NE (soluble nuclear extract) fraction, HEK-293T, peptides per identified protein.
Where [3] appears, read: HA-SS18WT_CHR_peptides: HA-SS18 WT purification from nuclease-treated solubilized chromatin (CHR), HEK-293T, label = protein identified.
The mark [4] stands for this setting: HA-SS18WT_NE_peptides: HA-SS18 WT complexes purified from nuclear extract (NE), HEK-293T, label = protein identified (Gene Symbol).
Setting [5] is: HA-SS18SSX1_NE_peptides: protein co-purified with HA-SS18-SSX1 BAF complexes from soluble nuclear extract (NE), HEK-293T cells.

We go through nine molecules from patent US20250283871A1, “COMPOSITIONS AND METHODS FOR MODULATING THE INTERACTION BETWEEN SS18-SSX FUSION ONCOPROTEIN AND NUCLEOSOMES” (Dana-Farber Cancer Institute, Inc., priority 2020, published 2025).

B1: NCOA5 (protein, UniProt Q9HCD5 1-579, looked up)
Nuclear receptor coactivator 5: MNTAPSRPSPTRRDPYGFGDSRDSRRDRSPIRGSPRREPRDGRNGRDARDSRDIRDPRDLRDHRHSRDLRDHRDSRSVRDVRDVRDLRDFRDLRDSRDFRDQRDPMYDRYRDMRDSRDPMYRREGSYDRYLRMDDYCRRKDDSYFDRYRDSFDGRGPPGPESQSRAKERLKREERRREELYRQYFEEIQRRFDAERPVDCSVIVVNKQTKDYAESVGRKVRDLGMVVDLIFLNTEVSLSQALEDVSRGGSPFAIVITQQHQIHRSCTVNIMFGTPQEHRNMPQADAMVLVARNYERYKNECREKEREEIARQAAKMADEAILQERERGGPEEGVRGGHPPAIQSLINLLADNRYLTAEETDKIINYLRERKERLMRSSTDSLPGPISRQPLGATSGASLKTQPSSQPLQSGQVLPSATPTPSAPPTSQQELQAKILSLFNSGTVTANSSSASPSVAAGNTPNQNFSTAANSQPQQRSQASGNQPPSILGQGGSAQNMGPRPGAPSQGLFGQPSSRLAPASNMTSQRPVSSTGINFDNPSVQKALDTLIQSGPALSHLVSQTTAQMGQPQAPMGSYQRHY
B1 came in with a Total of 2 and a Unique of 2. Besides, under setting [1], the “Total (total peptides)” value is recorded as 1 and the “Unique (unique peptides)” value is on record as 1.

B2: RPS10P5 (protein, UniProt Q9NQ39 1-176, looked up)
Putative ribosomal protein …: MLMPKKNRIAIHELLFKEGVMVAKKDVHMPKHPELADKNVPNLHVMKAMQSLKSRGCVKEQFAWRHFYWYLTNEGSQYLRDYLHLPPEIVPATLHLPPEIVPATLHRSRPETGRPRPKGLEGKRPARLTRREADRDTYRRCSVPPGADKKAEAGAGSATEFQFRGRCGRGRGQPPQ
In the case of B2, the Total came out at 2 and the Unique was 2. Further, under setting [1], the “Total (total peptides)” value turned out to be 1 and the “Unique (unique peptides)” value is 1.

B3: SLC25A13 (protein, UniProt Q9UJS0 2-675, looked up)
Electrogenic …: AAAKVALTKRADPAELRTIFLKYASIEKNGEFFMSPNDFVTRYLNIFGESQPNPKTVELLSGVVDQTKDGLISFQEFVAFESVLCAPDALFMVAFQLFDKAGKGEVTFEDVKQVFGQTTIHQHIPFNWDSEFVQLHFGKERKRHLTYAEFTQFLLEIQLEHAKQAFVQRDNARTGRVTAIDFRDIMVTIRPHVLTPFVEECLVAAAGGTTSHQVSFSYFNGFNSLLNNMELIRKIYSTLAGTRKDVEVTKEEFVLAAQKFGQVTPMEVDILFQLADLYEPRGRMTLADIERIAPLEEGTLPFNLAEAQRQKASGDSARPVLLQVAESAYRFGLGSVAGAVGATAVYPIDLVKTRMQNQRSTGSFVGELMYKNSFDCFKKVLRYEGFFGLYRGLLPQLLGVAPEKAIKLTVNDFVRDKFMHKDGSVPLAAEILAGGCAGGSQVIFTNPLEIVKIRLQVAGEITTGPRVSALSVVRDLGFFGIYKGAKACFLRDIPFSAIYFPCYAHVKASFANEDGQVSPGSLLLAGAIAGMPAASLVTPADVIKTRLQVAARAGQTTYSGVIDCFRKILREEGPKALWKGAGARVFRSSPQFGVTLLTYELLQRWFYIDFGGVKPMGSEPVPKSRINLPAPNPDHVGGYKLAVATFAGIENKFGLYLPLFKPSVSTSKAIGGGP
On to B3, for which the Total turned out to be 2 and the Unique was 2. Under setting [2], the “Total (total peptides)” value is 34 and the “Unique (unique peptides)” value stood at 23. Besides, under setting [3], the “Total (peptides)” value was determined as 4 and the “Unique (peptides)” value is reported as 4. Under setting [4], the “Total (peptides)” value came to 24 and the “Unique (peptides)” value is given as 22.

B4: RPS19BP1 (protein, UniProt Q86WX3 1-136, looked up)
Active regulator of SIRT1: MSAALLRRGLELLAASEAPRDPPGQAKPRGAPVKRPRKTKAIQAQKLRNSAKGKVPKSALDEYRKRECRDHLRVNLKFLTRTRSTVAESVSQQILRQNRGRKACDRPVAKTKKKKAEGTVFTEEDFQKFQQEYFGS
The molecule B4 returned a Total of 2 and a Unique of 2. Under setting [1], the “Total (total peptides)” value was determined as 2 and the “Unique (unique peptides)” value worked out at 2.

B5: LRIF1 (protein, UniProt Q5T3J3 1-769, looked up)
Ligand-dependent nuclear …: MSNNLRRVFLKPAEENSGNASRCVSGCMYQVVQTIGSDGKNLLQLLPIPKSSGNLIPLVQSSVMSDALKGNTGKPVQVTFQTQISSSSTSASVQLPIFQPASSSNYFLTRTVDTSEKGRVTSVGTGNFSSSVSKVQSHGVKIDGLTMQTFAVPPSTQKDSSFIVVNTQSLPVTVKSPVLPSGHHLQIPAHAEVKSVPASSLPPSVQQKILATATTSTSGMVEASQMPTVIYVSPVNTVKNVVTKNFQNIYPKPVTEIAKPVILNTTQIPKNVATETQLKGGQHSQAAPVKWIFQDNLQPFTPSLVPVKSSNNVASKILKTFVDRKNLGDNTINMPPLSTIDPSGTRSKNMPIKDNALVMFNGKVYLLAKKGTDVLPSQIDQQNSVSPDTPVRKDTLQTVSSSPVTEISREVVNIVLAKSKSSQMETKSLSNTQLASMANLRAEKNKVEKPSPSTTNPHMNQSSNYLKQSKTLFTNPIFPVGFSTGHNAPRKVTAVIYARKGSVLQSIEKISSSVDATTVTSQQCVFRDQEPKIHNEMASTSDKGAQGRNDKKDSQGRSNKALHLKSDAEFKKIFGLTKDLRVCLTRIPDHLTSGEGFDSFSSLVKSGTYKETEFMVKEGERKQQNFDKKRKAKTNKKMDHIKKRKTENAYNAIINGEANVTGSQLLSSILPTSDVSQHNILTSHSKTRQEKRTEMEYYTHEKQEKGTLNSNAAYEQSHFFNKNYTEDIFPVTPPELEETIRDEKIRRLKQVLREKEAALEEMRKKMHQK
In the case of B5, the Total is given as 2 and the Unique was determined as 2. Moreover, under setting [1], the “Total (total peptides)” value was 1 and the “Unique (unique peptides)” value is 1.

B6: CCDC137 (protein, UniProt Q6PK04 1-289, looked up)
Coiled-coil domain-containing …: MAGAGRGAAVSRVQAGPGSPRRARGRQQVQPLGKQRPAPWPGLRSKEKKKVNCKPKNQDEQEIPFRLREIMRSRQEMKNPISNKKRKKAAQVTFRKTLEKEAKGEEPDIAVPKFKQRKGESDGAYIHRMQQEAQHVLFLSKNQAIRQPEVQAAPKEKSEQKKAKKAFQKRRLDKVRRKKEEKAADRLEQELLRDTVKFGEVVLQPPELTARPQRSVSKDQPGRRSQMLRMLLSPGGVSQPLTASLARQRIVEEERERAVQAYRALKQRQQQLHGERPHLTSRKKPEPQL
As for B6, the Total is given as 2 and the Unique is listed as 2. Also, under setting [1], the “Total (total peptides)” value came out at 1 and the “Unique (unique peptides)” value is 1.

B7: DDX24 (protein, UniProt Q9GZR7 1-859, looked up)
ATP-dependent RNA helicase …: MKLKDTKSRPKQSSCGKFQTKGIKVVGKWKEVKIDPNMFADGQMDDLVCFEELTDYQLVSPAKNPSSLFSKEAPKRKAQAVSEEEEEEEGKSSSPKKKIKLKKSKNVATEGTSTQKEFEVKDPELEAQGDDMVCDDPEAGEMTSENLVQTAPKKKKNKGKKGLEPSQSTAAKVPKKAKTWIPEVHDQKADVSAWKDLFVPRPVLRALSFLGFSAPTPIQALTLAPAIRDKLDILGAAETGSGKTLAFAIPMIHAVLQWQKRNAAPPPSNTEAPPGETRTEAGAETRSPGKAEAESDALPDDTVIESEALPSDIAAEARAKTGGTVSDQALLFGDDDAGEGPSSLIREKPVPKQNENEEENLDKEQTGNLKQELDDKSATCKAYPKRPLLGLVLTPTRELAVQVKQHIDAVARFTGIKTAILVGGMSTQKQQRMLNRRPEIVVATPGRLWELIKEKHYHLRNLRQLRCLVVDEADRMVEKGHFAELSQLLEMLNDSQYNPKRQTLVFSATLTLVHQAPARILHKKHTKKMDKTAKLDLLMQKIGMRGKPKVIDLTRNEATVETLTETKIHCETDEKDFYLYYFLMQYPGRSLVFANSISCIKRLSGLLKVLDIMPLTLHACMHQKQRLRNLEQFARLEDCVLLATDVAARGLDIPKVQHVIHYQVPRTSEIYVHRSGRTARATNEGLSLMLIGPEDVINFKKIYKTLKKDEDIPLFPVQTKYMDVVKERIRLARQIEKSEYRNFQACLHNSWIEQAAAALEIELEEDMYKGGKADQQEERRRQKQMKVLKKELRHLLSQPLFTESQKTKYPTQSGKPPLLVSAPSKSESALSCLSKQKKKKTKKPKEPQPEQPQPSTSAN
Molecule B7 yielded a Total of 2 and a Unique of 2. In addition, under setting [5], the “Total (peptides)” value is 2 and the “Unique (peptides)” value is recorded as 2. Further, under setting [3], the “Total (peptides)” value was 3 and the “Unique (peptides)” value came to 3. Also, under setting [4], the “Total (peptides)” value is 4 and the “Unique (peptides)” value is 4.

B8: SLC25A11 (protein, UniProt Q02978 2-314, looked up)
Mitochondrial …: AATASAGAGGIDGKPRTSPKSVKFLFGGLAGMGATVFVQPLDLVKNRMQLSGEGAKTREYKTSFHALTSILKAEGLRGIYTGLSAGLLRQATYTTTRLGIYTVLFERLTGADGTPPGFLLKAVIGMTAGATGAFVGTPAEVALIRMTADGRLPADQRRGYKNVFNALIRITREEGVLTLWRGCIPTMARAVVVNAAQLASYSQSKQFLLDSGYFSDNILCHFCASMISGLVTTAASMPVDIAKTRIQNMRMIDGKPEYKNGLDVLFKVVRYEGFFSLWKGFTPYYARLGPHTVLTFIFLEQMNKAYKRLFLSG
Take B8: the Total was 2 and the Unique is 2. Under setting [2], the “Total (total peptides)” value worked out at 11 and the “Unique (unique peptides)” value is 11. For the same molecule, under setting [4], the “Total (peptides)” value stood at 13 and the “Unique (peptides)” value is 13.

B9: SPOUT1 (protein, UniProt Q5T280 1-376, looked up)
28S rRNA …: MAERGRKRPCGPGEHGQRIEWRKWKQQKKEEKKKWKDLKLMKKLERQRAQEEQAKRLEEEEAAAEKEDRGRPYTLSVALPGSILDNAQSPELRTYLAGQIARACAIFCVDEIVVFDEEGQDAKTVEGEFTGVGKKGQACVQLARILQYLECPQYLRKAFFPKHQDLQFAGLLNPLDSPHHMRQDEESEFREGIVVDRPTRPGHGSFVNCGMKKEVKIDKNLEPGLRVTVRLNQQQHPDCKTYHGKVVSSQDPRTKAGLYWGYTVRLASCLSAVFAEAPFQDGYDLTIGTSERGSDVASAQLPNFRHALVVFGGLQGLEAGADADPNLEVAEPSVLFDLYVNTCPGQGSRTIRTEEAILISLAALQPGLIQAGARHT
In turn, B9 returned a Total of 2 and a Unique of 2. In addition, under setting [2], the “Total (total peptides)” value was found to be 9 and the “Unique (unique peptides)” value turned out to be 6. Moreover, under setting [1], the “Total (total peptides)” value is recorded as 1 and the “Unique (unique peptides)” value is given as 1. Moreover, under setting [4], the “Total (peptides)” value is given as 9 and the “Unique (peptides)” value is 5.
